Measurements from the supplement of paper PMC5949888.
Most values lie at the floor of the assay. Slopes are relative: functional sequences can read slightly below zero.

These substances were tested on Saccharomyces cerevisiae PS128 hsf1 delta, HSF1(1-493) fusion (assay: growth estimate (transactivation domain function in HSF1 fusion, heat-shock survival) (a.u. (slope of normalised read count over time)); higher = stronger growth at 37°C, i.e. more transactivation activity). Conditions: library: random library.
Method: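 Random 60-nt DNA library encoding peptides of up to 20 aa, fused to the C-terminus of yeast HSF1 residues 1-493 (C-terminal TAD deleted) and expressed from the native HSF1 promoter on a CEN plasmid in hsf1-deleted S. cerevisiae PS128. Cells were selected at 37°C on -trp 5-FOA plates for 0, 2, 4, 6 and 8 days and amplicons were sequenced. Growth estimate is the slope of a robust linear fit of total-sum-normalised read counts (normalised to the first time point) over time, using at least 2 replicates. Sequences are classed functional (TAD activity) above a threshold of -0.13, set from stop-codon control sequences.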

Substance	growth estimate
ATILFIRHLSVFCVPDKLGL	< -0.25
ATITRRVRQFIYENECGPLQ	< -0.25
ATKACGGSRFPTRIKAREAS	< -0.25
ATLEIHFGAP	< -0.25
ATLEQIRG	< -0.25
ATLVGQVARTLTQDVLSGGS	< -0.25
ATMALSKLHDMEFQHARKVF	< -0.25
ATPGHKERGVRSDETP	< -0.25
ATPLTAWGGRVGFYTLTLKS	< -0.25
ATPQSGKGSR	< -0.25
ATQGPIAVSE	< -0.25
ATQLSTVEHTN	< -0.25
ATRFEPVPLPRKPIIRPLSV	< -0.25
ATRQAAHNNSRGQPSPIMFP	< -0.25
ATRRSRSCGSAPS	< -0.25
ATSRKGPTFFPSRGPRGYRA	< -0.25
ATSSKARQGALKVRL	< -0.25
ATTVRLSAWGVNTLAMEPWT	< -0.25
ATVL	< -0.25
ATVTSSGTLDVVM	-0.184
ATVVDPYGAWISHGITFSVG	< -0.25
ATYESSWTLKLRTQWSQLGL	< -0.25
AVAAVV	< -0.25
AVAIEYDTTDDGRGTVSNPD	< -0.25

Substance	growth estimate
AVALVSMRGKKIPDSQHLGR	< -0.25
AVCGRCFYSGQTGRVMTGHS	< -0.25
AVCQCRRSCAGVECRKGGLV	< -0.25
AVCTAMEVNIPLLLLDEVRV	< -0.25
AVEGFGANKPSFCAPSSSQG	< -0.25
AVELVSVCERSFLTVLQGFP	-0.246
AVEP	< -0.25
AVEQGTSFSSGIALRNLGRR	< -0.25
AVFLNCQYISNSLVVGNPQK	< -0.25
AVGEMNLPYGK	< -0.25
AVGIGLGDRSVIRMTTETGS	< -0.25
AVGKE	< -0.25
AVGSLGTWRGNGEIWGPSTY	< -0.25
AVGTRQSGRQLHCDT	< -0.25
AVHDPRTGT	< -0.25
AVHQSFEFIHGLTGYDMNLV	0.194
AVIDASINTPSPLSRGRDRP	< -0.25
AVIHKDEYTEGRKDDPPGIH	< -0.25
AVISYQHRSTAIRINGTSGP	< -0.25
AVIVY	-0.243
AVKHAQSLVKLGIGIIDGQG	< -0.25
AVLE	< -0.25
AVLLSPSSRLIMRIVLHLLQ	< -0.25
AVLRPTGYPAYAVAPSLHVG	< -0.25

Substance	growth estimate
AVLTNARVRSAYLRRCG	< -0.25
AVLYYGYGLLMAFSSVRRKF	< -0.25
AVNRNAMPRIKANTHFLTW	< -0.25
AVPCSFLWGSASYFNSKAIM	-0.243
AVPCSGYWRCCSTSHRNSLV	< -0.25
AVPHHSGNRSEGKAGNVRWE	< -0.25
AVPSAALEILKNAAL	-0.246
AVQGQEFCSRVCVVDQSTPT	< -0.25
AVQRAKPVSHRVPVA	< -0.25
AVQVMSLDPWIVALSELLIS	< -0.25
AVR	< -0.25
AVRHYEPWSHRNT	< -0.25
AVRNCGSPAT	< -0.25
AVRNVFNVRAVGTPARQCPK	< -0.25
AVRQHQAGRTLLYKVLMKPA	< -0.25
AVRSK	< -0.25
AVRTSRGR	< -0.25
AVRVPG	< -0.25
AVSLSTRYKNGSHSQLTNIS	< -0.25
AVTECFLTNMGCNRAV	< -0.25
AVTGTLLLYLSE	< -0.25
AVV	< -0.25
AVVEFPSHRC	< -0.25
AVVRYPVFVCVRTVPPPKVV	< -0.25

Substance	growth estimate
AVW	< -0.25
AVWRGSYVCR	< -0.25
AVYCFRITVE	< -0.25
AWCRVGFRWATNRIRLFDVA	< -0.25
AWDVT	< -0.25
AWESPG	< -0.25
AWGEWV	-0.25
AWIRMVRALGPQGSMGRVPP	< -0.25
AWQNARPCFLLPTRR	< -0.25
AWQRRRFDFFI	< -0.25
AWSKFRTHEKSPPSHCCNIL	< -0.25
AWSLPPRTSEG	< -0.25
AWVISWRSNPDALGPHCRGP	< -0.25
AWVMVRGALEASVGYSRNLL	< -0.25
AWVPVLSDYRHAVRTWGQCT	< -0.25
AYASTDMVPMSHTTLGEWKS	< -0.25
AYEAAFTRAGSAERGICGII	< -0.25
AYFLWGGRNG	< -0.25
AYGIQLGYNRGQFQSDYSLE	9.96
AYGSYNHQNNRRVL	< -0.25
AYHVHTCLAFGWHVCFTASK	< -0.25
AYICVVWWKTTYNKRVKGVW	< -0.25

A second format for some results above.
Substance | growth estimate
AVRQHQAGRTLLYKVLMKPA | < -0.25
AVRSK | < -0.25
AVRTSRGR | < -0.25
AVRVPG | < -0.25
AVSLSTRYKNGSHSQLTNIS | < -0.25
AVTECFLTNMGCNRAV | < -0.25
AVTGTLLLYLSE | < -0.25
AVV | < -0.25
AVVEFPSHRC | < -0.25
AVVRYPVFVCVRTVPPPKVV | < -0.25
AVW | < -0.25
AVWRGSYVCR | < -0.25
AVYCFRITVE | < -0.25
AWCRVGFRWATNRIRLFDVA | < -0.25
AWDVT | < -0.25
AWESPG | < -0.25
AWGEWV | -0.25
AWIRMVRALGPQGSMGRVPP | < -0.25
AWQNARPCFLLPTRR | < -0.25
AWQRRRFDFFI | < -0.25
AWSKFRTHEKSPPSHCCNIL | < -0.25
AWSLPPRTSEG | < -0.25
AWVISWRSNPDALGPHCRGP | < -0.25
AWVMVRGALEASVGYSRNLL | < -0.25
AWVPVLSDYRHAVRTWGQCT | < -0.25
AYASTDMVPMSHTTLGEWKS | < -0.25
AYEAAFTRAGSAERGICGII | < -0.25
AYFLWGGRNG | < -0.25
AYGIQLGYNRGQFQSDYSLE | 9.96
